Experiment [1] has as its target T1, Myc-tagged Fandango (Fandango-6xMyc) (Drosophila melanogaster) (UniProt A1Z9G2).
T1 sequence: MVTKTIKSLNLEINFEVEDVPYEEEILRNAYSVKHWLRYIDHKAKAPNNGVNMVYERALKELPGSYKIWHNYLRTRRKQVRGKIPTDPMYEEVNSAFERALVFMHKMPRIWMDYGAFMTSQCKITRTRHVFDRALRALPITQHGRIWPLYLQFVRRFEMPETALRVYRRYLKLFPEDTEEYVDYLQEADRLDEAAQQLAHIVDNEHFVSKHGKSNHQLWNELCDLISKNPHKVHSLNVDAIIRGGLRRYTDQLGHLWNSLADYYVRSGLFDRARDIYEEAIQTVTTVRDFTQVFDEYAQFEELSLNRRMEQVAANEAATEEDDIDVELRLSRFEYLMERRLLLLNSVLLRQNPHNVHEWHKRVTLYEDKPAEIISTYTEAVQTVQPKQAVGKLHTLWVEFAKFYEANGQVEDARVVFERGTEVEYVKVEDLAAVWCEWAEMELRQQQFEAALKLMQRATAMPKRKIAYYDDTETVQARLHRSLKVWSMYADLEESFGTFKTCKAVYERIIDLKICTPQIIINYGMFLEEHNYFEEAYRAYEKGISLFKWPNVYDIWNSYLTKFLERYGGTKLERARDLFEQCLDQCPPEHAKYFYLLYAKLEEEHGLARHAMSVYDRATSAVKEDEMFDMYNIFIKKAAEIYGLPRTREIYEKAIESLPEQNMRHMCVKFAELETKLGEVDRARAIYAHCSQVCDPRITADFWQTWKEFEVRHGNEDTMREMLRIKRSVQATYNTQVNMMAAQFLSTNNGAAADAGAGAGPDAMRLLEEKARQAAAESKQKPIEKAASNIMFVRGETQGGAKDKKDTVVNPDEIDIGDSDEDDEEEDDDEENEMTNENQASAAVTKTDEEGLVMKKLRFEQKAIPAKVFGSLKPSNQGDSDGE
As to the kind of experiment: affinity purification with mass spectrometry; total protein extracts of embryos expressing the Myc-tagged bait; 1 mg protein in NB buffer (150 mM NaCl, 50 mM Tris-HCl pH 7,5, 2 mM EDTA, 0,1% NP-40, 1 mM DTT, 10 mM NaF), mouse c-Myc antibody 9E10, Dynabeads Protein G, 4°C; LC-MS-MS/MS; two replicas.

Sequences of proteins named here, by UniProt entry; tags and fusion partners are left off. A change or cut given only in a name is not applied to a line headed by its entry.
UniProt Q7KLW9: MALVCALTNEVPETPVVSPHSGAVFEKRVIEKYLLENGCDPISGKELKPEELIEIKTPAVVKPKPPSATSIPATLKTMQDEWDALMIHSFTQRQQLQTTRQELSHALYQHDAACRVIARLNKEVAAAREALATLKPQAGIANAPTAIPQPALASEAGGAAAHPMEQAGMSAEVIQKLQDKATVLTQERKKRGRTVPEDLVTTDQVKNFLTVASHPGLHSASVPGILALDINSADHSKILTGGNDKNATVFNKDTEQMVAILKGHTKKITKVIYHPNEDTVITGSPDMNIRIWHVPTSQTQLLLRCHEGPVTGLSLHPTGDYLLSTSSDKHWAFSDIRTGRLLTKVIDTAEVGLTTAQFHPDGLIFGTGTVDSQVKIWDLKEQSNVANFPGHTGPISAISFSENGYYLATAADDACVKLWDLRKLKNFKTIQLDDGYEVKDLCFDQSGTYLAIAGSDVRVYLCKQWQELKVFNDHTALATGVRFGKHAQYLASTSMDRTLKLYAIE
UniProt Q9W0R0: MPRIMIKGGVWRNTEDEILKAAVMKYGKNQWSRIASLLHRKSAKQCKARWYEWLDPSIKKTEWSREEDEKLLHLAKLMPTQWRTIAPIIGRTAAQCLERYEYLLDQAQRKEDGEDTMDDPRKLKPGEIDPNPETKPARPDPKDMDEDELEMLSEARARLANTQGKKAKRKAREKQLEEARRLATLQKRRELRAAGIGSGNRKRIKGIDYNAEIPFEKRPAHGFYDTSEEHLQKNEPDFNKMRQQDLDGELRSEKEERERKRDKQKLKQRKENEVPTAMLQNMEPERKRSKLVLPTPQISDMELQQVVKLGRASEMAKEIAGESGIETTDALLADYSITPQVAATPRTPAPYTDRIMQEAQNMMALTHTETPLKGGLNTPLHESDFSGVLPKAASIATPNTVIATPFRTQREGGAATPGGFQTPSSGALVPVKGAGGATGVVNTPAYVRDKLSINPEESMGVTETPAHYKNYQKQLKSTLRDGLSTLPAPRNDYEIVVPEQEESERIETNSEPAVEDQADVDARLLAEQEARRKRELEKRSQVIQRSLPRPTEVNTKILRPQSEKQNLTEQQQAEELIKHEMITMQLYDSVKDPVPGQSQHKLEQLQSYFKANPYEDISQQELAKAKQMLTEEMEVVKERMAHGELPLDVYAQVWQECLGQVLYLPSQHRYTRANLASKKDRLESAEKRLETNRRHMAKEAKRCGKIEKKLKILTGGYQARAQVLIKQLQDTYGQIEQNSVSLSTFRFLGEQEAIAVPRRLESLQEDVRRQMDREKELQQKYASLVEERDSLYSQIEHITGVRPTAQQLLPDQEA
UniProt Q9V3G3: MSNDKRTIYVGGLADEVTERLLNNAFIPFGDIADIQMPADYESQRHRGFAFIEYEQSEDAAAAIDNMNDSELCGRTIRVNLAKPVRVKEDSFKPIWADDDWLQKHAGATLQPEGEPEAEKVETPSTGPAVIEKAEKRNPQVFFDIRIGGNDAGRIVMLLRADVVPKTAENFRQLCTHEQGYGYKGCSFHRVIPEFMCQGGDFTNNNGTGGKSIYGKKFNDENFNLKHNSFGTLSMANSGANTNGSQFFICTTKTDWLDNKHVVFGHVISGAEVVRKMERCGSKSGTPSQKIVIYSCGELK
UniProt Q7KTP9: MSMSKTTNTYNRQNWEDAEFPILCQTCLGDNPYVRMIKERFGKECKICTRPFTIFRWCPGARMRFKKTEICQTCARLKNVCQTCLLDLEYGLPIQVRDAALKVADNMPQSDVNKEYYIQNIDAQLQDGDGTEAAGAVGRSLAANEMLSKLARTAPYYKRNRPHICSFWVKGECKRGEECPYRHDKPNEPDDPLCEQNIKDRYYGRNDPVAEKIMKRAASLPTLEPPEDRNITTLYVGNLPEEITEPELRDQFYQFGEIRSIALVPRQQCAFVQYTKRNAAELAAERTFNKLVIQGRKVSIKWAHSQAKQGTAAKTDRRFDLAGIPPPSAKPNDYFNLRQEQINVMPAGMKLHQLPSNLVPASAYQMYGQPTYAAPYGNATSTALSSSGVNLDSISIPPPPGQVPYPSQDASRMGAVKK
UniProt Q9W0Q2: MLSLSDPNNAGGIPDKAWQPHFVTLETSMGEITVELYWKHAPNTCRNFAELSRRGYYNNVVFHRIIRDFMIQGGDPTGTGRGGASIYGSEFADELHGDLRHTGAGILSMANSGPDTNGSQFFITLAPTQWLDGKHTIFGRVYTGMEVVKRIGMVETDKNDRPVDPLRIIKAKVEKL
UniProt Q9VAY6: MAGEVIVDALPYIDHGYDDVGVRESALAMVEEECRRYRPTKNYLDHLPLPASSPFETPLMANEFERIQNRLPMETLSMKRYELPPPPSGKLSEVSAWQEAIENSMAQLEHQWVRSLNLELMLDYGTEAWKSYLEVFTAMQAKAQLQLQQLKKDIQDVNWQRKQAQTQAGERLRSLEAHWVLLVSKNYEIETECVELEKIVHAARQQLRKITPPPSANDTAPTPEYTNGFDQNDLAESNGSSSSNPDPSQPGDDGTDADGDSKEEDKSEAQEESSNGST
UniProt Q9VYQ9: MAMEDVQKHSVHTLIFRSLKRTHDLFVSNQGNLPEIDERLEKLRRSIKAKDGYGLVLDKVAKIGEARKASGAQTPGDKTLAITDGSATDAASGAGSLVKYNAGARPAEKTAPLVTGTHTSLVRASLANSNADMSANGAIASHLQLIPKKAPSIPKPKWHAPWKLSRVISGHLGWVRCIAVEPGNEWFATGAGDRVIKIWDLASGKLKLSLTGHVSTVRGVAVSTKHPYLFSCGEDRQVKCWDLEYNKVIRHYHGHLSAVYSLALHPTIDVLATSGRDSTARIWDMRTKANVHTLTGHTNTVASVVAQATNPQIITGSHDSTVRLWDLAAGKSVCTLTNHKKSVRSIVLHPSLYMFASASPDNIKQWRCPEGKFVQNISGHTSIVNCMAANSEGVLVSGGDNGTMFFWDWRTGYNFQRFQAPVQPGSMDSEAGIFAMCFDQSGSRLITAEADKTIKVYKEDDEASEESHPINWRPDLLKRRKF

For experiment [2], the target named is T1, Myc-tagged Fandango (Fandango-6xMyc) (Drosophila melanogaster). Briefly: affinity purification with mass spectrometry; total protein extracts of ovaries expressing the Myc-tagged bait; 1 mg protein in NB buffer (150 mM NaCl, 50 mM Tris-HCl pH 7,5, 2 mM EDTA, 0,1% NP-40, 1 mM DTT, 10 mM NaF), mouse c-Myc antibody 9E10, Dynabeads Protein G, 4°C; LC-MS-MS/MS; two replicas.

Experiment [3] deals with Myc-tagged Prp19 (Prp19-6xMyc) (Drosophila melanogaster) (UniProt Q7KLW9). Briefly: affinity purification with mass spectrometry; total protein extracts of embryos expressing the Myc-tagged bait; 1 mg protein in NB buffer (150 mM NaCl, 50 mM Tris-HCl pH 7,5, 2 mM EDTA, 0,1% NP-40, 1 mM DTT, 10 mM NaF), mouse c-Myc antibody 9E10, Dynabeads Protein G, 4°C; LC-MS-MS/MS; two replicas.

No constants are given. Whether binding was seen depends on the method and setting. Binding seen in cells or lysates may run through a third protein. These calls come from enrichment with a bait or labelling near it, and not all partners need be listed. For part of these data: Where a sequence is shown, tags or fusion partners need not be part of it.

Turning to “CDC5L (CG6905, cdc5-like) (from UniProt Q9W0R0)”, the binding entry in experiment [1] and in experiment [2] was “binds” in each case.
As to ISY1 (CG9667), the binding result in experiment [1] and in experiment [2] was “binds” throughout.
For “cyp33 (CG4886) (from UniProt Q9V3G3 1-300)”, the binding result in experiment [1], in experiment [3] and in experiment [2] was “binds” each time.
Consider CG14641 (from UniProt Q7KTP9), for which the binding entry in experiment [1], in experiment [3] and in experiment [2] was “binds” in each case.
Regarding “Prp19 (CG5519) (from UniProt Q7KLW9 1-505)”, the binding result in experiment [1] and in experiment [2] was “binds” throughout.
For the molecule CG31368, the binding entry in experiment [1] and in experiment [2] was “binds” in each case.
For the molecule cypl (CG13892) (from UniProt Q9W0Q2), in experiment [1], the binding entry is on record as “binds”.
Consider CG4980 (from UniProt Q9VAY6), for which the binding result in experiment [3] and in experiment [2] was “binds” in each case.
For Tango4 (CG1796) (from UniProt Q9VYQ9), the binding entry in experiment [1], in experiment [3] and in experiment [2] was “binds” throughout.

B1: Bx42 (CG8264) (protein, UniProt P39736 1-547)
chain: MSLSSLLPTPTNAIWDREDERRLVARGAPKIGALVSAKIAAPPYGQRKDWVPHTDADFGDGGAFPEIHVAQYPLGLGAPGNVGKKSDALAVRLDDKGKVKYDAIARQGHGKDKIVYSSISQLLPAEVLAEDADELQRPDEETVMETTEETRLALEKLTNQKITSALPVRHAQKAGPAQYIRYTPSQQGDTFNSGAKQRVIRMVEAQLDPMEPPKFRINKKIPRGPPSPPAPVLHSPSRKVTVKEQKEWKIPPCISNWKNAKGYTIPLDKRLAADGRGLQQVHINEKFAKMAEALYIADRKAREAVEARSQLEKKLAQKEKEKKEDMLRMMAQRAREERAGLRNPEAAEPSGSGATGSEVRERNDLRAERQRERQRDRNLQRAAPEKRSKLQKERERDISEQIALGLPAKSAGNGETLFDQRLFNTTKGMDSGYGDDEAYNVYDKPWRDSNTLGAHIYRPSKQADSDNYGGDLDAIVNTKRFVPDKQFSGASKEAAAGQRSGPVEFEKEEDPFGLDQFLNMAKKAPKRAEEKNNERSSHSDRKRSKRD
In the case of B1, the binding result in experiment [1], in experiment [3] and in experiment [2] was “binds” each time.

B2: c12.1 (CG12135) (protein, UniProt Q9V3B6 1-259)
chain: MTTAARPTFDPARGGSGRGEKDLSALSKQYSSRDLPGHTKLKYRETGQGTSDENRNRDFRKELEEREREARSGTGATSSSSGKALPSIVRKAIEANNAGGGSSAAKRSKPDAGQQQAQQAAQQQAANMDADEPLDNDSSDSDSDSDDDDAALLAELQKIKQERLQETARRESEKKQEDERIRMENILSGNPLMNYEPGTAASAAGRASGLGGDLKIKRRWDDDVVFKNCARSAPDKKTHFVNDALRSDFHKKFMDKYIK
For the molecule B2, the binding entry in experiment [2] is given as “binds”.

B3: Crn (CG3193) (protein, UniProt P17886 1-702)
chain: MERPQKMPKVAKVKNKAPAEVQITAEQLLREAKERDLEILPPPPKQKISDPAELADYQQRKRKTFEDNLRKNRMVVSHWIKYAQWEEQQQEIQRARSIWERALDNEHRNVTLWLKYAEMEMKNKQVNHARNLWDRAVTIMPRVNQFWYKYTYMEEMLENVAGARQVFERWMEWQPEEQAWQTYVNFELRYKEIDRAREIYERFVYVHPDVKNWIKFARFEESHGFIHGSRRVFERAVEFFGDDYIEERLFIAFARFEEGQKEHDRARIIYKYALDHLPKDRTQELFKAYTKHEKKYGDRAGIEDVIVSKRKYQYEQEVAANPTNYDAWFDYLRLIEAEGDRDQIRETYERAISNVPPANEKNFWRRYIYLWINYALYEELEAEDAERTRQIYKTCLELIPHKQFTFSKLWLLYAQFEIRCKELQRARKALGLAIGMCPRDKLFRGYIDLEIQLREFERCRMLYEKFLEFGPENCVTWMKFAELENLLGDTDRARAIFELAVQQPRLDMPELLWKAYIDFEVALGETELARQLYERLLERTQHVKVWMSFAKFEMGLSHGDSGPDAELNVQLARRIYERANEMLRQLGDKESRVLLLEAWRDFERDASDSQEMQKVMDKMPRRIKKRQKIVSDNGVEEGWEEVFDYIFPEDEMARPNLKLLAAAKMWKTQKDNTVDDPPATAIASEPEPAADAAPADTTDSGD
Take B3: the binding result in experiment [3] and in experiment [2] was “binds” each time.

B4: Fandango (CG6197) (protein, UniProt A1Z9G2 1-883)
chain: MVTKTIKSLNLEINFEVEDVPYEEEILRNAYSVKHWLRYIDHKAKAPNNGVNMVYERALKELPGSYKIWHNYLRTRRKQVRGKIPTDPMYEEVNSAFERALVFMHKMPRIWMDYGAFMTSQCKITRTRHVFDRALRALPITQHGRIWPLYLQFVRRFEMPETALRVYRRYLKLFPEDTEEYVDYLQEADRLDEAAQQLAHIVDNEHFVSKHGKSNHQLWNELCDLISKNPHKVHSLNVDAIIRGGLRRYTDQLGHLWNSLADYYVRSGLFDRARDIYEEAIQTVTTVRDFTQVFDEYAQFEELSLNRRMEQVAANEAATEEDDIDVELRLSRFEYLMERRLLLLNSVLLRQNPHNVHEWHKRVTLYEDKPAEIISTYTEAVQTVQPKQAVGKLHTLWVEFAKFYEANGQVEDARVVFERGTEVEYVKVEDLAAVWCEWAEMELRQQQFEAALKLMQRATAMPKRKIAYYDDTETVQARLHRSLKVWSMYADLEESFGTFKTCKAVYERIIDLKICTPQIIINYGMFLEEHNYFEEAYRAYEKGISLFKWPNVYDIWNSYLTKFLERYGGTKLERARDLFEQCLDQCPPEHAKYFYLLYAKLEEEHGLARHAMSVYDRATSAVKEDEMFDMYNIFIKKAAEIYGLPRTREIYEKAIESLPEQNMRHMCVKFAELETKLGEVDRARAIYAHCSQVCDPRITADFWQTWKEFEVRHGNEDTMREMLRIKRSVQATYNTQVNMMAAQFLSTNNGAAADAGAGAGPDAMRLLEEKARQAAAESKQKPIEKAASNIMFVRGETQGGAKDKKDTVVNPDEIDIGDSDEDDEEEDDDEENEMTNENQASAAVTKTDEEGLVMKKLRFEQKAIPAKVFGSLKPSNQGDSDGE
Consider B4, for which the binding result in experiment [3] is recorded as “binds”.

The values above are taken from paper PMC3989599.
